Test results as given in patent publication US20050144661A1 (WASHINGTON UNIVERSITY, published 2005).
These are yes or no findings as the source states them, for the method shown. Some results given as binding are weak or reduced against the parent protein; the word gives no strength.

Biological target: CLuc-14-3-3ε (Photinus pyralis) [luciferase: P08659]
Assay: LCI, live HEK-293 cells

binding: binds
B1: Cdc25C-NLuc (other, human;Photinus pyralis, UniProt P30307 1-473, looked up)
chain: MSTELFSSTREEGSSGSGPSFRSNQRKMLNLLLERDTSFTVCPDVPRTPVGKFLGDSANLSILSGGTPKRCLDLSNLSSGEITATQLTTSADLDETGHLDSSGLQEVHLAGMNHDQHLMKCSPAQLLCSTPNGLDRGHRKRDAMCSSSANKENDNGNLVDSEMKYLGSPITTVPKLDKNPNLGEDQAEEISDELMEFSLKDQEAKVSRSGLYRSPSMPENLNRPRLKQVEKFKDNTIPDKVKKKYFSGQGKLRKGLCLKKTVSLCDITITQMLEEDSNQGHLIGDFSKVCALPTVSGKHQDLKYVNPETVAALLSGKFQGLIEKFYVIDCRYPYEYLGGHIQGALNLYSQEELFNFFLKKPIVPLDTQKRIIIVFHCEFSSERGPRMCRCLREEDRSLNQYPALYYPELYILKGGYRDFFPEYMELCEPQSYCPMHHQDHKTELLRCRSQSKVQEGERQLREQIALLVKDMSPEDAKNIKKGPAPFYPLEDGTAGEQLHKAMKRYALVPGTIAFTDAHIEVNITYAEYFEMSVRLAEAMKRYGLNTNHRIVVCSENSLQFFMPVLGALFIGVAVAPANDIYNERELLNSMNISQPTVVFVSKKGLQKILNVQKKLPIIQKIIIMDSKTDYQGFQSMYTFVTSHLPPGFNEYDFVPESFDRDKTIALIMNSSGSTGLPKGVALPHRTACVRFSHARDPIFGNQIIPDTAILSVVPFHHGFGMFTTLGYLICGFRVVLMYRFEEELFLRSLQDYKIQSALLVPTLFSFFAKSTLIDKYDLSNLHEIASGGAPLSKEVGEAVAKRFHLPGIRQGYGLTETTSAILITPEGDDKPGAVGKVVPFFEAKVVDLDTGKTLGVNQRGELCVRGPMIMSGYVNNPEATNALIDKDG
modifications: phosphorylated on S216 in the cells (Western blot, reduced by UCN-01)
notes: FRB of the NLuc fusion vector replaced by the Cdc25C open reading frame; not shown: Gly/Ser linker region reconstituted up to the BsiWI site
